# Results: the supplement of paper PMC4962491
# ± gives the standard deviation of the averaged measurements. This is a selection; strong and weak results do not stand in their true shares. Single values are uncertain here, since repeats match poorly. Numbered stars: 1 amine (or outer) side, 2 acyl side, 3 side chain; on linkers, the order of the positions; unused ones are H or OH. Bridge positions count the residues as written; N and C are the ends. Square brackets hold non-standard residues; d marks the D form. Peptide text beside a SMILES is read from it. I, II: the chains in the order shown. Actinocin(9to1) = Cc1c2oc3c(C)ccc(C(=O)[*:1])c3nc-2c(C(=O)[*:2])c(N)c1=O; NMeV = CN[C@H](C(=O)O)C(C)C; Sar = CNCC(=O)O
# System: FaDu
# Assay: mitochondrial oxygen consumption rate normalised to cell number, Z score over the library; higher = higher oxygen consumption (negative = OCR reduction)
# Settings: treatment time 24 h, assay medium: 5 mM galactose, 5 mM pyruvate, 4 mM glutamine
# Procedure: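 Primary screen: FaDu cells were incubated 24 h with Pharmakon 1600 / TDI oncology set compounds at 2 or 10 uM. Mitochondrial-specific OCR (basal minus 2 uM antimycin A) was measured on a Seahorse XF96 in assay medium with 5 mM galactose, 5 mM pyruvate and 4 mM glutamine, then corrected for Hoechst cell number and expressed as a Z score […]. Compounds that cut cell number by >66% were excluded. Two repeats.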
Compound,mitochondrial oxygen consumption rate normalised (2 µM),mitochondrial oxygen consumption rate normalised (10 µM)
CC(=O)O[C@]1(C(C)=O)CC[C@H]2[C@@H]3C=C(C)C4=CC(=O)CC[C@]4(C)[C@H]3CC[C@@]21C [Megestrol acetate],0.626 ± 0.38,
Cc1c(C)c2c(c(C)c1O)CCC(C)(CCCC(C)CCCC(C)CCCC(C)C)O2 (stereo not drawn) [alpha-TOCHOPHEROL],1.31 ± 0.98,
Nc1nc(=O)[nH]cc1F,0.748 ± 0.51,
Nc1nnc(-c2cccc(Cl)c2Cl)c(N)n1,0.251 ± 0.031,
CC[C@@]1(O)C(=O)OCc2c1cc1n(c2=O)Cc2cc3c(CN(C)C)c(O)ccc3nc2-1,,-4.46 ± 0.19
OCC(S)CS (stereo unspecified),0.371 ± 1.3,
O=C(c1cccnc1)N1CCOCC1,0.446 ± 1.1,
COc1ccc2cc3[n+](cc2c1OC)CCc1cc2c(cc1-3)OCO2,-3.127 ± 0.03,-5.87 ± 0.012
COc1ccc2c(c1)c(CC(=O)OCC(=O)O)c(C)n2C(=O)c1ccc(Cl)cc1,0.0192 ± 0.44,
"Cc1c2oc3c(C)ccc(C(=O)N[C@@H]4C(=O)N[C@H](C(C)C)C(=O)N5CCC[C@H]5C(=O)N(C)CC(=O)N(C)[C@@H](C(C)C)C(=O)O[C@@H]4C)c3nc-2c(C(=O)N[C@@H]2C(=O)N[C@H](C(C)C)C(=O)N3CCC[C@H]3C(=O)N(C)CC(=O)N(C)[C@@H](C(C)C)C(=O)O[C@@H]2C)c(N)c1=O (I: T[dV]P[Sar][NMeV] / II: T[dV]P[Sar][NMeV]; ester I:1-I:C, II:1-II:C; linker I:N-II:N via Actinocin(9to1))",-3.53 ± 0.23,-4.48 ± 0.4
CC(=O)NC[C@H]1CN(c2ccc(N3CCOCC3)c(F)c2)C(=O)O1,-0.179 ± 0.69,
O=C1C(O)=C(O)C(=O)C(O)=C1O,0.302 ± 1.1,0.611 ± 0.72
Cc1nccn1CC1CCc2c(c3ccccc3n2C)C1=O (stereo unspecified),0.447 ± 0.81,
NC(=O)c1cc[n+](CC2=C(C(=O)[O-])N3C(=O)[C@@H](NC(=O)Cc4cccs4)[C@H]3SC2)cc1,0.401 ± 0.17,
CC1=C(C(=O)O)N2C(=O)[C@@H](NC(=O)[C@H](N)c3ccccc3)[C@H]2SC1,1.31 ± 0.22,
CC[C@H](C)C(=O)O[C@H]1C[C@H](O)C=C2C=C[C@H](C)[C@H](CC[C@@H](O)C[C@@H](O)CC(=O)O)[C@H]21,-1.21 ± 0.66,
CC(C)(C)NCC(O)COc1cccc2c1CC(O)C(O)C2 (stereo unspecified),0.907 ± 2.2,
O=C(CCCCC(=O)Nc1c(I)cc(I)c(C(=O)O)c1I)Nc1c(I)cc(I)c(C(=O)O)c1I,-0.131 ± 0.5,
CNCC[C@@H](Oc1ccccc1C)c1ccccc1,0.146 ± 0.67,
Cc1ccc(C(=O)C(C)CN2CCCCC2)cc1 (stereo unspecified),-0.627 ± 0.62,
O=C(O)Cc1cc(I)c(Oc2ccc(O)c(I)c2)c(I)c1,0.261 ± 0.99,

Compound,mitochondrial oxygen consumption rate normalised (2 µM),mitochondrial oxygen consumption rate normalised (10 µM)
COCCCOc1ccnc(C[S+]([O-])c2nc3ccccc3[nH]2)c1C (stereo unspecified),-0.209 ± 0.84,
C[C@@H](Oc1cc(-c2cnn(C3CCNCC3)c2)cnc1N)c1c(Cl)ccc(F)c1Cl [Crizotinib],0.539 ± 0.26,
N=C(N)N1CCc2ccccc2C1,0.17 ± 0.53,
CC1=CC(=O)c2ccccc2C1=O,0.331 ± 0.51,
CC(=O)/N=c1/sc(S(N)(=O)=O)nn1C,0.678 ± 0.67,
CCCc1nc2c(C)cc(-c3nc4ccccc4n3C)cc2n1Cc1ccc(-c2ccccc2C(=O)O)cc1,0.00631 ± 0.92,
CCCCOC(=O)c1ccc(O)cc1,-0.634 ± 2,
C#C[C@]1(OC(C)=O)CC[C@H]2[C@@H]3CCC4=CC(=O)CC[C@@H]4[C@H]3CC[C@@]21C,-1.39 ± 0.79,
COCCCOc1cc(C[C@@H](C[C@H](N)[C@@H](O)C[C@H](C(=O)NCC(C)(C)C(N)=O)C(C)C)C(C)C)ccc1OC,0.167 ± 0.15,0.624 ± 0.066
CCCCC1C(=O)N(c2ccccc2)N(c2ccccc2)C1=O,-0.557 ± 0.3,
O=C(Nc1ccccc1)OCC(CN1CCCCC1)OC(=O)Nc1ccccc1 (stereo unspecified),0.191 ± 0.48,
N=C(N)c1ccc(N=NNc2ccc(C(=N)N)cc2)cc1,-0.858 ± 0.17,
CO/N=C(\C(=O)N[C@@H]1C(=O)N2C(C(=O)O)=C(CSC(=O)c3ccco3)CS[C@H]12)c1csc(N)n1,-0.274 ± 0.7,
CCCC(=O)Nc1ccc(OCC(O)CNC(C)C)c(C(C)=O)c1 (stereo unspecified),0.515 ± 1,
C[C@@H]1O[C@@H](OC[C@H]2O[C@@H](Oc3c(-c4ccc(O)c(O)c4)oc4cc(O)cc(O)c4c3=O)[C@H](O)[C@@H](O)[C@@H]2O)[C@H](O)[C@H](O)[C@H]1O,-1.21 ± 1.6,
CC(=O)OCC(=O)[C@@]12OC3(CCCC3)O[C@@H]1C[C@H]1[C@@H]3CCC4=CC(=O)C=C[C@]4(C)[C@@]3(F)[C@@H](O)C[C@@]12C,0.0223 ± 1.8,
Cc1oc(=O)oc1CN1CCN(c2cc3c(cc2F)c(=O)c(C(=O)O)c2n3C(C)S2)CC1 (stereo unspecified),-0.346 ± 0.13,0.0314 ± 0.4
C=COCC(F)(F)F,-0.243 ± 0.17,
N[C@@H](CC(=O)N1CCn2c(nnc2C(F)(F)F)C1)Cc1cc(F)c(F)cc1F,-0.249 ± 0.83,
CC1(C)[C@@H](O)CC[C@]2(C)[C@H]3C(=O)C=C4[C@@H]5C[C@@](C)(C(=O)O)CC[C@]5(C)CC[C@@]4(C)[C@]3(C)CC[C@@H]12,0.119 ± 0.26,

# Some of the entries above in another layout:
Compound	mitochondrial oxygen consumption rate normalised (2 µM)	mitochondrial oxygen consumption rate normalised (10 µM)
C[C@@H](Oc1cc(-c2cnn(C3CCNCC3)c2)cnc1N)c1c(Cl)ccc(F)c1Cl [Crizotinib]	0.539 ± 0.26	
N=C(N)N1CCc2ccccc2C1	0.17 ± 0.53	
CC1=CC(=O)c2ccccc2C1=O	0.331 ± 0.51	
